Paper PMC2680043, “Characterization of a Novel Small Molecule Subtype Specific Estrogen-Related Receptor α Antagonist in MCF-7 Breast Cancer Cells” (PLoS ONE, 2009)
These are yes or no findings as the source states them, for the method shown. Binding seen in cells or lysates may run through a third protein. Some results given as binding are weak or reduced against the parent protein; the word gives no strength.

Sequences of proteins named here, by UniProt entry; tags and fusion partners are left off. Residues count along the entry.
UniProt Q61026, residues 565-798: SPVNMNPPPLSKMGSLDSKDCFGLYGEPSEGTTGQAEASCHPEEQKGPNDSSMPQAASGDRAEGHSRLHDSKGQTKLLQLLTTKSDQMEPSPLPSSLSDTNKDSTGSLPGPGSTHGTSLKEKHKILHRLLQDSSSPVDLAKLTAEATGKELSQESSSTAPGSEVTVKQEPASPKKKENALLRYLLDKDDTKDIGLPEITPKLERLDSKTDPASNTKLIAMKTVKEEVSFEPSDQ
UniProt Q9Y6Q9, residues 557-773: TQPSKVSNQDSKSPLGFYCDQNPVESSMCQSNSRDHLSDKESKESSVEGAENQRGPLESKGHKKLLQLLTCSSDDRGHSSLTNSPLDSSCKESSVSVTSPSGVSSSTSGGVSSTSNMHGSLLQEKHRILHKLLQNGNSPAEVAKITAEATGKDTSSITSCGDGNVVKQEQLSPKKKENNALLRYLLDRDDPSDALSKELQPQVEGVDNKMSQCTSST

Legend:
Assay in all cases: pull-down; biotinylated coactivator RID bound to streptavidin beaded agarose; in vitro translated [35S]-labeled ERRα added in 1x TBS with DMSO (control), 4 hours at 4°C; SDS gel, phosphorimaging; only the target purified
[1] = molecular target: GRIP-1 receptor interaction domain (RID), aa 565-798, biotinylated (UniProt Q61026)
[2] = molecular target: T1, PGC-1α receptor interaction domain (RID), aa 1-338, biotinylated (UniProt Q9UBK2)
T1 sequence (chain, biotinylated (sites not stated)): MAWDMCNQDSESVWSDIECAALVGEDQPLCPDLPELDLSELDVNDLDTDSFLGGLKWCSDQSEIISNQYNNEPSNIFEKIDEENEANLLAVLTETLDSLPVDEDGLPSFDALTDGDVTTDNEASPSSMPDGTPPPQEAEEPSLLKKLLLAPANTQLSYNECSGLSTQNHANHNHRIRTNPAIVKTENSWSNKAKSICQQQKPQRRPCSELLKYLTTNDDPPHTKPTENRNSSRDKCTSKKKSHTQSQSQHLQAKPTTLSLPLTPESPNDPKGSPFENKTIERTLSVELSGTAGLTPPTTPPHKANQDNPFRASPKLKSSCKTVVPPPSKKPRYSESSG

[3] = molecular target: AIB1 receptor interaction domain (RID), aa 557-773, biotinylated (UniProt Q9Y6Q9)

binding [1]: binds | binding [2]: binds | binding [3]: binds
B1: full-length human estrogen-related receptor α (ERRα), [35S]methionine-labeled (receptor, UniProt P11474 1-423, looked up)
chain: MSSQVVGIEPLYIKAEPASPDSPKGSSETETEPPVALAPGPAPTRCLPGHKEEEDGEGAGPGEQGGGKLVLSSLPKRLCLVCGDVASGYHYGVASCEACKAFFKRTIQGSIEYSCPASNECEITKRRRKACQACRFTKCLRVGMLKEGVRLDRVRGGRQKYKRRPEVDPLPFPGPFPAGPLAVAGGPRKTAAPVNALVSHLLVVEPEKLYAMPDPAGPDGHLPAVATLCDLFDREIVVTISWAKSIPGFSSLSLSDQMSVLQSVWMEVLVLGVAQRSLPLQDELAFAEDLVLDEEGARAAGLGELGAALLQLVRRLQALRLEREEYVLLKALALANSDSVHIEDAEAVEQLREALHEALLEYEAGRAGPGGGAERRRAGRLLLTLPLLRQTAGKVLAHFYGVKLEGKVPMHKLFLEMLEAMMD
modifications: [35S]methionine label
notes: estrogen-related receptor alpha, human, full length, amplified from human brain Marathon-ready cDNA and cloned into pcDNA3.1(+); No tag is named for this construct; also called hERRα; ESRRA; source: in vitro translated (TnT coupled reticulocyte lysate system, Promega), [35S]methionine added
